Source: US8461328B2, “Tricyclic heterocyclic compounds, compositions and methods of use thereof” (Genentech, Inc., priority 2010, dated 2013)
Some results were stated once for a whole list of compounds, not compound by compound.

Protein sequences, listed by entry. Tags and fused reporters are not part of them. Residues count along the entry.
UniProt P23458, 852-1154: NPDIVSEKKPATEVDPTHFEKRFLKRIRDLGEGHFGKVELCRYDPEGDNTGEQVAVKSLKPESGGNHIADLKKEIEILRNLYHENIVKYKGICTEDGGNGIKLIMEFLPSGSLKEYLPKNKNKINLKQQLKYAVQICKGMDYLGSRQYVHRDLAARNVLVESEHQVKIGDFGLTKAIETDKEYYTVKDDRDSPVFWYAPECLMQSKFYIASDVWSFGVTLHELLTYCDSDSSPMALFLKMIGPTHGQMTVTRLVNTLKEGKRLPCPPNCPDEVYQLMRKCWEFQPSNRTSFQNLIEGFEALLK

Target: T1, human JAK1 kinase domain (Homo sapiens, UniProt P23458)
T1 construct: made in house; host or cells: SF9 insect cells (baculovirus)
Assay: JAK1 inhibition assay (Example B), Caliper LabChip peptide phosphorylation
Format: biochemical
Details: 1.5 nM JAK1, 25 μM ATP, Morrison tight binding model; read-out: Ki in a JAK1 kinase activity assay (Example B)

| Structure (SMILES) | Ki |
| --- | --- |
| O=C(NCCc1nc2cnc3[nH]ccc3c2n1C1CCCCC1)C1CC1(F)F (racemic) [Example 515, 2,2-Difluoro-cyclopropanecarboxylic acid [2-(1-cyclohexyl-1,6-dihydro-1,3,5,6-tetraaza-as-indacen-2-yl)-ethyl]-amide] | < 500 nM |
| N#CCCN1CCC(n2c(CCC3CCCO3)nc3cnc4[nH]ccc4c32)CC1 (racemic) [Example 517, 3-(4-{2-[2-(Tetrahydro-furan-2-yl)-ethyl]-6H-1,3,5,6-tetraaza-as-indacen-1-yl}-piperidin-1-yl)-propionitrile] | < 500 nM |
| CCN1CCC(n2c(C)nc3cnc4[nH]ccc4c32)C(F)(F)C1 (racemic) [Example 531, 1-(1-Ethyl-3,3-difluoro-piperidin-4-yl)-2-methyl-1,6-dihydro-1,3,5,6-tetraaza-as-indacene] | < 500 nM |
| CCN1CCC(n2nnc3cnc4[nH]ccc4c32)C(F)(F)C1 (racemic) [Example 533, 1-(1-Ethyl-3,3-difluoro-piperidin-4-yl)-1,6-dihydro-1,2,3,5,6-pentaaza-as-indacene] | < 500 nM |
| COC1CN(C)CCC1n1c(C)nc2cnc3[nH]ccc3c21 (racemic) [Example 534, 1-(3-Methoxy-1-methyl-piperidin-4-yl)-2-methyl-1,6-dihydro-1,3,5,6-tetraaza-as-indacene] | < 500 nM |
| COC1CNCCC1n1c(C)nc2cnc3[nH]ccc3c21 (racemic) [Example 535, 1-(3-Methoxy-piperidin-4-yl)-2-methyl-1,6-dihydro-1,3,5,6-tetraaza-as-indacene] | < 500 nM |
| COC1CNCCC1n1cnc2cnc3[nH]ccc3c21 (racemic) [Example 537, 1-(3-Methoxy-piperidin-4-yl)-1,6-dihydro-1,3,5,6-tetraaza-as-indacene] | < 500 nM |

More lines, now with the values ahead:

| Ki | Structure (SMILES) |
| --- | --- |
| < 500 nM | CC(CC#N)N1CCC(n2c(CNS(C)(=O)=O)nc3cnc4[nH]ccc4c32)CC1 (racemic) [Example 507, N-{1-[1-(2-Cyano-1-methyl-ethyl)-piperidin-4-yl]-1,6-dihydro-1,3,5,6-tetraaza-as-indacen-2-ylmethyl}-methanesulfonamide] |
| < 500 nM | N#CCC(=O)N1CCC(F)C(n2nnc3cnc4[nH]ccc4c32)C1 (racemic) [Example 519, 3-[4-Fluoro-3-(6H-1,2,3,5,6-pentaaza-as-indacen-1-yl)-piperidin-1-yl]-3-oxo-propionitrile] |
| < 500 nM | FC1CNCCC1n1cnc2cnc3[nH]ccc3c21 (racemic) [Example 520, 1-(3-Fluoro-piperidin-4-yl)-1,6-dihydro-1,3,5,6-tetraaza-as-indacene] |
| < 500 nM | CC(O)c1nc2cnc3[nH]ccc3c2n1C1CCN(S(C)(=O)=O)CC1 (racemic) [Example 527, 1-[1-(1-Methanesulfonyl-piperidin-4-yl)-1,6-dihydro-1,3,5,6-tetraaza-as-indacen-2-yl]-ethanol] |
| < 500 nM | CC(O)c1nc2cnc3[nH]ccc3c2n1C1CCN(C(=O)N(C)C)CC1 (racemic) [Example 528, 4-[2-(1-Hydroxy-ethyl)-6H-1,3,5,6-tetraaza-as-indacen-1-yl]-piperidine-1-carboxylic acid dimethylamide] |
| < 500 nM | CC(O)c1nc2cnc3[nH]ccc3c2n1C1CCN(CC(=O)N2CCCCC2)CC1 (racemic) [Example 529, 2-{4-[2-(1-Hydroxy-ethyl)-6H-1,3,5,6-tetraaza-as-indacen-1-yl]-piperidin-1-yl}-1-piperidin-1-yl-ethanone] |
| < 500 nM | CCN1CCC(n2cnc3cnc4[nH]ccc4c32)C(F)(F)C1 (racemic) [Example 532, 1-(1-Ethyl-3,3-difluoro-piperidin-4-yl)-1,6-dihydro-1,3,5,6-tetraaza-as-indacene] |
| < 500 nM | COC1CNCCC1n1nnc2cnc3[nH]ccc3c21 (racemic) [Example 536, 1-(3-Methoxy-piperidin-4-yl)-1,6-dihydro-1,2,3,5,6-pentaaza-as-indacene] |
